Values from PubChem BioAssay AID504793 (Drosophila RNAi Screening Center, 2011).
Assay: 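Genes required for cells to halt at G2/M after double-strand DNA breaks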 (primary screen). Cell system: Drosophila S2R+ cells. Reagent: long dsRNA against Drosophila genes, about 0.25 µg dsRNA per well. Timing: 4 days of dsRNA, then 4 hours of drug before read-out. Treatment: doxorubicin 0.5 µM for 4 hours to cause double-strand breaks, in cells also given a low, harmless dose of dsRNA against nbs to sensitise the assay. Detection: 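Mitotic index as the number of phospho-histone H3-positive cells in each well following doxorubicin, given as raw counts without normalisation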. Scale: mitotic cells: higher = more cells in mitosis, weaker G2 arrest. Active means: 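a call needs confirmation in secondary tests, with other dsRNAs and a check of mitotic timing without damage, not just a high primary count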. Calls: active = confirmed in follow-up tests; inactive = not confirmed.
The deposit covers about 23,000 reagents; below is an unselected part of those that have a named target and a result. Over the whole deposit, 62 (0.27%) got an active call. 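Calls come from follow-up tests whose scores are not deposited, so confirmed genes may have low counts here; counts are not normalised per plate.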 Raw values vary from plate to plate and are shown uncorrected. Names joined by + are all predicted targets of the reagent. No sequences are given here.

| predicted target | dsRNA | mitotic cells, replicate 1 | mitotic cells, replicate 2 | Outcome |
| --- | --- | --- | --- | --- |
| CG32511 (retired record) | DRSC20697 | 10 | – | inactive |
| CG32447 | DRSC11732 | 7 | – | inactive |
| CG32447 | DRSC11805 | 3 | – | inactive |
| CG2321 | DRSC15439 | 4 | – | inactive |
| CG7668 | DRSC10901 | 12 | – | inactive |
| Zip42C.1 (Zinc/iron regulated transporter-related protein 42C.1) | DRSC05003 | 8 | – | inactive |
| Glo1 (Glyoxalase 1) | DRSC06657 | 6 | – | inactive |
| Lip1 (Lipase 1) | DRSC03364 | 4 | – | inactive |
| CG5510 | DRSC15823 | 11 | – | inactive |
| TTLL1B (Tubulin tyrosine ligase-like 1B) | DRSC08594 | 7 | – | inactive |
| CG3071 | DRSC18526 | 3 | – | inactive |
| CG3071 | DRSC26289 | 10 | – | inactive |
| dysc (dyschronic) | DRSC10273 | 12 | – | inactive |
| dysc (dyschronic) | DRSC11040 | 6 | – | inactive |
| dysc (dyschronic) | DRSC22334 | 14 | – | inactive |
| dysc (dyschronic) | DRSC22824 | 8 | – | inactive |
| dysc (dyschronic) | DRSC26188 | 7 | – | inactive |
| CG1504 | DRSC20513 | 5 | – | inactive |
| CG1504 | DRSC26901 | 5 | – | inactive |
| CG10098 | DRSC12509 | 4 | – | inactive |
| CG10098 | DRSC26223 | 2 | – | inactive |
| Gmppa (GDP-mannose pyrophosphorylase A) | DRSC07108 | 5 | – | inactive |
| Gmppa (GDP-mannose pyrophosphorylase A) | DRSC25683 | 9 | – | inactive |
| CG6470 | DRSC19994 | 2 | – | inactive |
| CG6470 | DRSC27690 | 7 | – | inactive |
| sol (small optic lobes) | DRSC20587 | 4 | – | inactive |
| sol (small optic lobes) | DRSC26252 | 3 | – | inactive |
| DZIP1 | DRSC14620 | 8 | – | inactive |
| CG14218 | DRSC19575 | 16 | 8 | inactive |
| CG14218 | DRSC25424 | 4 | – | inactive |
| CG3698 | DRSC11749 | 7 | – | inactive |
| CG3698 | DRSC26417 | 2 | – | inactive |
| CG13056 | DRSC09937 | 5 | – | inactive |
| CG13056 | DRSC29419 | 2 | – | inactive |
| VhaPPA1-1 (Vacuolar H[+] ATPase PPA1 subunit 1) | DRSC16170 | 4 | – | inactive |
| VhaPPA1-1 (Vacuolar H[+] ATPase PPA1 subunit 1) | DRSC24144 | 8 | – | inactive |
| BORCS7 + CG13430 | DRSC06392 | 6 | – | inactive |
| BORCS7 + CG13430 | DRSC06707 | 8 | – | inactive |
| puf (puffyeye) | DRSC23167 | 12 | – | inactive |
| Obp58d (Odorant-binding protein 58d) | DRSC04162 | 8 | – | inactive |
| CG3294 | DRSC00590 | 5 | – | inactive |
| CG3294 | DRSC26228 | 7 | – | inactive |
| Agpat1 (1-Acylglycerol-3-phosphate O-acyltransferase 1) | DRSC19879 | 23 | – | inactive |
| Agpat1 (1-Acylglycerol-3-phosphate O-acyltransferase 1) | DRSC19880 | 14 | – | inactive |
| CG1789 | DRSC18140 | 5 | – | inactive |
| CG1789 | DRSC28967 | 5 | – | inactive |
| CG30357 | DRSC22472 | 45 | – | inactive |
| Tsf1 (Transferrin 1) | DRSC20296 | 12 | – | inactive |
| Tsf1 (Transferrin 1) | DRSC28246 | 1 | – | inactive |
| frtz (fritz) | DRSC00512 | 7 | – | inactive |
| CG3092 | DRSC04336 | 6 | – | inactive |
| CG3092 | DRSC30054 | 6 | – | inactive |
| CG15841 (retired record) + Acp33A | DRSC01859 | 4 | – | inactive |
| CG13045 | DRSC09926 | 3 | – | inactive |
| CG13045 | DRSC25454 | – | – | inactive |
| CG44153 | DRSC02228 | 5 | – | inactive |
| CG44153 | DRSC02229 | 4 | – | inactive |
| CG44153 | DRSC02902 | 2 | – | inactive |
| CG44153 | DRSC02903 | 6 | – | inactive |
| Lpin (Lipin) | DRSC07241 | 5 | – | inactive |
| beat-Ia (beaten path Ia) | DRSC03489 | 10 | – | inactive |
| beat-Ia (beaten path Ia) | DRSC25576 | 17 | – | inactive |
| Taf5 (TBP-associated factor 5) | DRSC07562 | 6 | – | inactive |
| Taf5 (TBP-associated factor 5) | DRSC29351 | 5 | – | inactive |
| CG3226 | DRSC18296 | 6 | – | inactive |
| Ppn (Papilin) | DRSC15328 | 8 | – | inactive |
| Ppn (Papilin) | DRSC27718 | 10 | – | inactive |
| CG13083 | DRSC02187 | 4 | – | inactive |
| CG13083 | DRSC28424 | 9 | – | inactive |
| CG7099 | DRSC03006 | 5 | – | inactive |
| CG7099 | DRSC27321 | 5 | – | inactive |
| l(2)k01209 (lethal (2) k01209) | DRSC06889 | 5 | – | inactive |
| l(2)k01209 (lethal (2) k01209) | DRSC29673 | 1 | – | inactive |
| CG13423 | DRSC06386 | 3 | – | inactive |
| CG31802 | DRSC02459 | 5 | – | inactive |
| CG12826 | DRSC06175 | 3 | – | inactive |
| Rcd1 (Reduction in Cnn dots 1) | DRSC07116 | 37 | – | active |
| Rcd1 (Reduction in Cnn dots 1) | DRSC23713 | 44 | – | active |
| slmo + CG34179 | DRSC03143 | 4 | – | inactive |
| pzg (putzig) | DRSC11848 | 3 | – | inactive |
| GstE8 (Glutathione S transferase E8) | DRSC06678 | 4 | – | inactive |
| CG13559 | DRSC04197 | 9 | – | inactive |
| knk (knickkopf) | DRSC15993 | 9 | – | inactive |
| obe (obelus) | DRSC15736 | 8 | – | inactive |
| CG34164 + RpL7-like | DRSC28314 | 4 | – | inactive |

The list goes on (10 carried over from the part before).
| predicted target | dsRNA | mitotic cells, replicate 1 | mitotic cells, replicate 2 | Outcome |
| --- | --- | --- | --- | --- |
| CG12826 | DRSC06175 | 3 | – | inactive |
| Rcd1 (Reduction in Cnn dots 1) | DRSC07116 | 37 | – | active |
| Rcd1 (Reduction in Cnn dots 1) | DRSC23713 | 44 | – | active |
| slmo + CG34179 | DRSC03143 | 4 | – | inactive |
| pzg (putzig) | DRSC11848 | 3 | – | inactive |
| GstE8 (Glutathione S transferase E8) | DRSC06678 | 4 | – | inactive |
| CG13559 | DRSC04197 | 9 | – | inactive |
| knk (knickkopf) | DRSC15993 | 9 | – | inactive |
| obe (obelus) | DRSC15736 | 8 | – | inactive |
| CG34164 + RpL7-like | DRSC28314 | 4 | – | inactive |
| RhoGAP93B (Rho GTPase activating protein at 93B) | DRSC15488 | 9 | – | inactive |
| dbr (debra) | DRSC00274 | 3 | – | inactive |
| CG13796 | DRSC24686 | 5 | – | inactive |
| Scm (Sex comb on midleg) | DRSC16853 | 2 | – | inactive |
| pit (pitchoune) | DRSC17025 | 7 | – | inactive |
| pit (pitchoune) | DRSC22798 | 6 | – | inactive |
| pit (pitchoune) | DRSC28254 | 5 | – | inactive |
| VepD (Ventrally-expressed protein D) | DRSC22318 | 8 | – | inactive |
| VepD (Ventrally-expressed protein D) | DRSC27653 | 4 | – | inactive |
| CG13771 | DRSC02277 | 4 | – | inactive |
| CG4553 | DRSC15595 | 9 | – | inactive |
| CG4553 | DRSC28957 | 2 | – | inactive |
| Acp53C14b (Accessory gland protein 53C14b) | DRSC06569 | 6 | – | inactive |
| GLS (Glutaminase) | DRSC07261 | 9 | – | inactive |
| GLS (Glutaminase) | DRSC25962 | 4 | – | inactive |
| Dlip2 (Dorsal interacting protein 2) | DRSC12346 | 2 | – | inactive |
| Polr3G (RNA polymerase III subunit G) | DRSC21511 | 9 | – | inactive |
| ph-p (polyhomeotic proximal) | DRSC18820 | 9 | – | inactive |
| Wbp2 (WW domain binding protein 2) | DRSC25018 | 6 | – | inactive |
| sloth2 + sloth1 | DRSC17922 | 17 | – | inactive |
| sloth2 + sloth1 | DRSC17923 | 7 | – | inactive |
| Rs1 | DRSC05945 | 3 | – | inactive |
| Rs1 | DRSC26592 | 4 | – | inactive |
| CG30339 | DRSC05168 | 12 | – | inactive |
| SIFa (SIFamide) | DRSC04480 | 2 | – | inactive |
| stc (shuttle craft) | DRSC03620 | 7 | – | inactive |
| CG4009 | DRSC15536 | 7 | – | inactive |
| Obp83a (Odorant-binding protein 83a) | DRSC12362 | 8 | – | inactive |
| Gr59f (Gustatory receptor 59f) | DRSC04499 | 9 | – | inactive |
| Gr59f (Gustatory receptor 59f) | DRSC27044 | 13 | – | inactive |
| CG13127 | DRSC02223 | 7 | – | inactive |
| CG13127 | DRSC29726 | 6 | – | inactive |
| Gr22b (Gustatory receptor 22b) | DRSC20911 | 19 | – | inactive |
| Gbeta5 (G protein beta subunit 5) | DRSC17754 | 14 | – | inactive |
| scaRNA:MeU5-C46 (small Cajal body-specific RNA : MeU5-C46) | DRSC36572 | 10 | – | inactive |
| fdl (fused lobes) | DRSC07279 | 5 | – | inactive |
| fdl (fused lobes) | DRSC26852 | 2 | – | inactive |
| Tango6 (Transport and Golgi organization 6) | DRSC02671 | 25 | – | active |
| Tango6 (Transport and Golgi organization 6) | DRSC29389 | 17 | – | inactive |
| Acsx3 (Acyl-CoA synthetase X3) | DRSC14309 | 4 | – | inactive |
| CG14000 + bchs | DRSC02333 | 4 | – | inactive |
| CG31782 (retired record) | DRSC01554 | 1 | – | inactive |
| CG31782 (retired record) | DRSC01556 | 3 | – | inactive |
| CG4955 | DRSC19927 | 7 | – | inactive |
| RhoGAPp190 (Rho GTPase activating protein p190) | DRSC20097 | 10 | – | inactive |
| RhoGAPp190 (Rho GTPase activating protein p190) | DRSC20099 | 10 | – | inactive |
| CG7148 | DRSC11802 | 4 | – | inactive |
| lncRNA:CR31044 (long non-coding RNA::CR31044) | DRSC22451 | 7 | – | inactive |
| lncRNA:CR31044 (long non-coding RNA::CR31044) | DRSC25989 | 8 | – | inactive |
| SCOT (Succinyl-CoA:3-ketoacid CoA transferase) | DRSC08186 | 5 | – | inactive |
| SCOT (Succinyl-CoA:3-ketoacid CoA transferase) | DRSC26521 | 6 | – | inactive |
| Shrm (Shroom) | DRSC06438 | 4 | – | inactive |
| Shrm (Shroom) | DRSC07221 | 7 | – | inactive |
| Shrm (Shroom) | DRSC23067 | 10 | – | inactive |
| Shrm (Shroom) | DRSC25072 | 2 | – | inactive |
| Shrm (Shroom) | DRSC27498 | 10 | – | inactive |
